The list shows a part of the results.
Compound: Cc1cc(ccc1-c1ccccc1)C(=O)N1CCCN(CC1)C(=O)CCl [compound 10]
Test: probe-labelled cysteine peptide fold change vs DMSO (competition) (log2 fold change); higher = less target engagement (more negative = stronger competition)
Conditions: 10 µM; THP-1; incubation time: 4 h
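Further: competitive profiling in live THP-1 cells: cysteine peptides tagged with an iodoacetamide desthiobiotin (IA-DTB) probe, intensity after compound treatment relative to DMSO-treated cells.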

Protein sequences, listed by entry. Tags and fused reporters are not part of them. Lines headed by an entry give the natural chain unless they say otherwise; changes in a name come on top.
UniProt Q92610: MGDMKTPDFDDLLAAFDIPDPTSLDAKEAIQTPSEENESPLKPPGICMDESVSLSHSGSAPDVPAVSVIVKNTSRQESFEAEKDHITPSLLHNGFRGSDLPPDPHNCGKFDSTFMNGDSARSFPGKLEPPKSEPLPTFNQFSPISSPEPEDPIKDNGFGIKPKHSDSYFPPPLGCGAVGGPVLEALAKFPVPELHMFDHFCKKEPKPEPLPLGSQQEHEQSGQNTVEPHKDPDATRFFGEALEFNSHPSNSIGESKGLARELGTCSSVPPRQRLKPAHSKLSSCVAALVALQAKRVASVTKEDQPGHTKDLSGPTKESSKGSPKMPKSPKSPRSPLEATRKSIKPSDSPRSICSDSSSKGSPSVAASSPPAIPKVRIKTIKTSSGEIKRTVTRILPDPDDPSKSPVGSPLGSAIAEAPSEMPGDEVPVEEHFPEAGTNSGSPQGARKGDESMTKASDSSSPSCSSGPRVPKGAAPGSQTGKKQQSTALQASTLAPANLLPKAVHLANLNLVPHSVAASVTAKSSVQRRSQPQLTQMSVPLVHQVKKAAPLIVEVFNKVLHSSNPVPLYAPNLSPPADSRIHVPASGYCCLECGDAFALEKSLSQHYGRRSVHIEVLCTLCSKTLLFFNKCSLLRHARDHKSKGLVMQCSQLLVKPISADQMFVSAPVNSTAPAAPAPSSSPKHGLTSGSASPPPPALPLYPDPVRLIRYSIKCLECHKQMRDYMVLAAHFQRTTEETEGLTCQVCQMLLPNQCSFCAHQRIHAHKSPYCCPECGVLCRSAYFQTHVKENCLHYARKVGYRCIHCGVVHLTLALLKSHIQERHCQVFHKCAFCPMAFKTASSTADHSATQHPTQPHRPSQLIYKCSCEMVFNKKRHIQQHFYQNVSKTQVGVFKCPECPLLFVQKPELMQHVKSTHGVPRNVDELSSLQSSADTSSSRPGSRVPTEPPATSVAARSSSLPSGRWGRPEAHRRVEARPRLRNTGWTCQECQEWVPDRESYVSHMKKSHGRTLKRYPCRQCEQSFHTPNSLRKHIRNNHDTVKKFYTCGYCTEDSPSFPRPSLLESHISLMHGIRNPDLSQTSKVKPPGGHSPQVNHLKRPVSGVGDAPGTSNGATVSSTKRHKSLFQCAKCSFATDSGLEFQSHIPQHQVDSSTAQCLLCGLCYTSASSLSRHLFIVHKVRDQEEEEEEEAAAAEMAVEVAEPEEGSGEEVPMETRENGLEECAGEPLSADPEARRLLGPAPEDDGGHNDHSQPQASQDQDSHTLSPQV
UniProt Q15326: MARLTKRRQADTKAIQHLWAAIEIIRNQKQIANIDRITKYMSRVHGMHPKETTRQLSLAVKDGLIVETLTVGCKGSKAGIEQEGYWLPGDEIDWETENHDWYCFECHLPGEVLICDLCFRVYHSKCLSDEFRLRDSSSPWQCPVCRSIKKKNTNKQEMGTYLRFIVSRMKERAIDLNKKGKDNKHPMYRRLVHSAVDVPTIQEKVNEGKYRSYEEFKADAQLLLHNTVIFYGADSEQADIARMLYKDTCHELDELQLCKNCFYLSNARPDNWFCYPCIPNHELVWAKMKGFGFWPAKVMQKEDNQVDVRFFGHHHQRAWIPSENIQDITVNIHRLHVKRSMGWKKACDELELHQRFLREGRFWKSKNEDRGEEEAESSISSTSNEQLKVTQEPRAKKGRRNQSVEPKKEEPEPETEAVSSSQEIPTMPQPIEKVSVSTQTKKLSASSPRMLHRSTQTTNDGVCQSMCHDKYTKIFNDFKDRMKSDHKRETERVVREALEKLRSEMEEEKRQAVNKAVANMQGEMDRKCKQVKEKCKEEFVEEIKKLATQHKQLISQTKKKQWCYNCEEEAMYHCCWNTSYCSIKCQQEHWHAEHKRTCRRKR
UniProt Q96KR1: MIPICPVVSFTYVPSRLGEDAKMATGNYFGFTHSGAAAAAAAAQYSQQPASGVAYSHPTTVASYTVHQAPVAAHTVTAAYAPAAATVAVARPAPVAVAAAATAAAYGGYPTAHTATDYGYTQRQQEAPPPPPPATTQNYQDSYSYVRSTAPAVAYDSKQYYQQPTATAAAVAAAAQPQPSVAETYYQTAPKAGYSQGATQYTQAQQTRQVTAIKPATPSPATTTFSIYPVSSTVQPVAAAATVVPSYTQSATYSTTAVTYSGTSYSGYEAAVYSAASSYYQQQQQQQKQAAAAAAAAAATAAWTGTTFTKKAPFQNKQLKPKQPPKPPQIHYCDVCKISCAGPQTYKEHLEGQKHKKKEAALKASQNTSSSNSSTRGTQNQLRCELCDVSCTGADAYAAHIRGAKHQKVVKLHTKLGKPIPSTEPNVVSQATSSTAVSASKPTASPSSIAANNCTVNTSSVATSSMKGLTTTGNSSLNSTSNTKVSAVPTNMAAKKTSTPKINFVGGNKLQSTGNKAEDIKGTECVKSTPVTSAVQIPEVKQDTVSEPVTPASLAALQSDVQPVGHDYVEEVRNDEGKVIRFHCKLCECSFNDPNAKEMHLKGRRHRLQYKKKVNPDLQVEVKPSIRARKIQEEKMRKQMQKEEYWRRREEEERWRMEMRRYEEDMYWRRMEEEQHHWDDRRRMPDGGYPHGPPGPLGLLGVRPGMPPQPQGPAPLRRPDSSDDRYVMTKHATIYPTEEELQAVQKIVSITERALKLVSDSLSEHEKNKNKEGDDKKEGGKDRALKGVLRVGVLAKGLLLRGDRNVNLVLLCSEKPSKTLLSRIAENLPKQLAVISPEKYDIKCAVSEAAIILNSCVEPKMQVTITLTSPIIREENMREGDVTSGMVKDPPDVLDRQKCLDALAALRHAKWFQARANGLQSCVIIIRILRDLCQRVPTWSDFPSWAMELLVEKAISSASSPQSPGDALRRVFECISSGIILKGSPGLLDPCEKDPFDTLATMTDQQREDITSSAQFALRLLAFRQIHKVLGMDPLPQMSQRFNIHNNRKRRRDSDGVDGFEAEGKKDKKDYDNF
UniProt Q9ULU4: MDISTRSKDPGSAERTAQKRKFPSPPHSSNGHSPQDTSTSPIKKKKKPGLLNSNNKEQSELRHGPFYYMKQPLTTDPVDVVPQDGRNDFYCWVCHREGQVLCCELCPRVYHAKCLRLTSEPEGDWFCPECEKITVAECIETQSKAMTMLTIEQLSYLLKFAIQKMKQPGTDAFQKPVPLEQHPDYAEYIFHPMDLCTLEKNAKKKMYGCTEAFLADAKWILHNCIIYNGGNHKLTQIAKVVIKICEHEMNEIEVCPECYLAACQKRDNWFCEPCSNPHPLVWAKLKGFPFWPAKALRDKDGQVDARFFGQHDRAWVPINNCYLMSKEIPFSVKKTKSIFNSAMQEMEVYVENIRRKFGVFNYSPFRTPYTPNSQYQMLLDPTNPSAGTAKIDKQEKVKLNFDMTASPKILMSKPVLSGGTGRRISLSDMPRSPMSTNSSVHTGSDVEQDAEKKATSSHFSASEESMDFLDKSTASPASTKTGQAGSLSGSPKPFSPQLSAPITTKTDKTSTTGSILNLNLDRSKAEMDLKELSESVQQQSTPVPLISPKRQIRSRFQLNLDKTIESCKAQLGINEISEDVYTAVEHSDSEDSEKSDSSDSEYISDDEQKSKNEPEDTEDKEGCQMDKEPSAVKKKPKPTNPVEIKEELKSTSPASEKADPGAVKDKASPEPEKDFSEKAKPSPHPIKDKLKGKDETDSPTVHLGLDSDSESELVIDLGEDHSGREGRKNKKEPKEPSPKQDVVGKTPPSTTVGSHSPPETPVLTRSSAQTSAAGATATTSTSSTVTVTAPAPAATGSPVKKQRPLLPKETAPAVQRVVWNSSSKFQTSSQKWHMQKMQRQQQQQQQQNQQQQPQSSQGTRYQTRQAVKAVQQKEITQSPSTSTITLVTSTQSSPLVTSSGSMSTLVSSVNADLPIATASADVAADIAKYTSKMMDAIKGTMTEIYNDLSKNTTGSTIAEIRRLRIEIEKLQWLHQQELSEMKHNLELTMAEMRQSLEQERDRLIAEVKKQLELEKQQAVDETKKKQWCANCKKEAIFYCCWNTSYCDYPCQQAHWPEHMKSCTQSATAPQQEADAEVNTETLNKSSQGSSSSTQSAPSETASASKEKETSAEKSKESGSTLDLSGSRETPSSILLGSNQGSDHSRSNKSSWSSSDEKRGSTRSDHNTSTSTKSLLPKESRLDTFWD
UniProt Q14966: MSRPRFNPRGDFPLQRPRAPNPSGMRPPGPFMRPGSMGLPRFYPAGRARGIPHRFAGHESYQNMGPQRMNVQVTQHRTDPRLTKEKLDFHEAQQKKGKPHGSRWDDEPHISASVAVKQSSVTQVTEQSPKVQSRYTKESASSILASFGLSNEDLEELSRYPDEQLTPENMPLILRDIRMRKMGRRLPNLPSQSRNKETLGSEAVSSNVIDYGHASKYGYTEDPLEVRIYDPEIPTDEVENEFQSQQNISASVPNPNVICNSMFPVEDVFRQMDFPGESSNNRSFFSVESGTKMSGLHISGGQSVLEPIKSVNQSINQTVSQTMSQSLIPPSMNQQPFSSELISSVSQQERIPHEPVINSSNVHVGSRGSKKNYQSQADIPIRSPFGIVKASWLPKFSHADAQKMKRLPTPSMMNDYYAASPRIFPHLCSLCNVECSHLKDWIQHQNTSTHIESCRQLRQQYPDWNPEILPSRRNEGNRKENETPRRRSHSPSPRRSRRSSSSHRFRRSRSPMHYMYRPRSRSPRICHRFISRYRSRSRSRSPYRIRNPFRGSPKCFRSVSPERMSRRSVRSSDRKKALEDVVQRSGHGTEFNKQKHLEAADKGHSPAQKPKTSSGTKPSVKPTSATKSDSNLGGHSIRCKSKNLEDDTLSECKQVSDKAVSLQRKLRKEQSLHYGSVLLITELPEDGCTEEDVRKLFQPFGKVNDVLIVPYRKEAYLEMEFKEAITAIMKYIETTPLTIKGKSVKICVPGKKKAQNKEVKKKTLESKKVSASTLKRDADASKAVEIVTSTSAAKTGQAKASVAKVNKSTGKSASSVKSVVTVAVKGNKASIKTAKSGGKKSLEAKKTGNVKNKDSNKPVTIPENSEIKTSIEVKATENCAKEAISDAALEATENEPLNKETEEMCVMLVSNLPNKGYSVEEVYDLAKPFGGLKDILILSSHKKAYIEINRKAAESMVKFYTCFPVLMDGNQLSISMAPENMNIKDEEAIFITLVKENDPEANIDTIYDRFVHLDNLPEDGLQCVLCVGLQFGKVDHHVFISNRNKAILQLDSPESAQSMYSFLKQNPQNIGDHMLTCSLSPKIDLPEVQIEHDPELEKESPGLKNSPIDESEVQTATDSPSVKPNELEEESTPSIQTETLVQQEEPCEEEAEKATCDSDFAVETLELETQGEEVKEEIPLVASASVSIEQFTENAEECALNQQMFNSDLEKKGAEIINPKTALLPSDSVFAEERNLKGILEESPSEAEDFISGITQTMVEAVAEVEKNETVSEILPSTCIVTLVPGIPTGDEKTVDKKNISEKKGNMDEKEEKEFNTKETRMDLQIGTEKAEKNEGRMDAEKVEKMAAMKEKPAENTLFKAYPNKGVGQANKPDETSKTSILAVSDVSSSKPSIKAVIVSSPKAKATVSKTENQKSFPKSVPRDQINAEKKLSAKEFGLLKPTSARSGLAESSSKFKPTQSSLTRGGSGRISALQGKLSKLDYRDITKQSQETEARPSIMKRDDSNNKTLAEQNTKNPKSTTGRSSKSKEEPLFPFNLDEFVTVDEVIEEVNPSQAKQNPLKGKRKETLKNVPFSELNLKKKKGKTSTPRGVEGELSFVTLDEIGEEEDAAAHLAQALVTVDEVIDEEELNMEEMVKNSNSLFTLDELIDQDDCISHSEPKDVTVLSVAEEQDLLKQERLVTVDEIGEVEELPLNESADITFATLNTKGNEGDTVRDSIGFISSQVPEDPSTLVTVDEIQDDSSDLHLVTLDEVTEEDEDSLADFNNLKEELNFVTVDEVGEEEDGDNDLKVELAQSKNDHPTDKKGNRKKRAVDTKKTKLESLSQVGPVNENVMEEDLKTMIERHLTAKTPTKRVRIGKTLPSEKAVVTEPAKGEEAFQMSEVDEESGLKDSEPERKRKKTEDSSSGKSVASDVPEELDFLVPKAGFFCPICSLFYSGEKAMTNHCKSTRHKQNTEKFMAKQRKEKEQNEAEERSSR
UniProt O95159: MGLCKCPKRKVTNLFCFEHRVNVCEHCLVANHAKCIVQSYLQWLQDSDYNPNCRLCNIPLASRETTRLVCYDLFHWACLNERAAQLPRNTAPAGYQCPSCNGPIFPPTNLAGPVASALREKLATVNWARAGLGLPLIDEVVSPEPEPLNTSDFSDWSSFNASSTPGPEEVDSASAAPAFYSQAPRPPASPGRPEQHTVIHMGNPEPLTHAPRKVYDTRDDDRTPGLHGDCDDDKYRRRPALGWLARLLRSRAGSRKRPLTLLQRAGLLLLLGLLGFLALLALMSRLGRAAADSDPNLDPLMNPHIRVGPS

| Target | probe-labelled cysteine peptide fold change |
| --- | --- |
| ZNF592_Q92610_790_ENCLHYAR (UniProt Q92610) | 0.0985 |
| ZMYND11_Q15326_249+258_DTCHELDELQLCK (UniProt Q15326) | 0.32 |
| ZFR_Q96KR1_844+856_CAVSEAAIILNSCVEPK (UniProt Q96KR1) | 0.0711 |
| ZMYM3_Q14202_968_ASSDLCDLVSNQSAEGLLEDCDLFGPAR (UniProt Q14202) | 0.133 |
| ZFP64_Q9NPA5_196_CHTGVKPYK (UniProt Q9NTW7) | 0.138 |
| ZNF512_Q96ME7_540_NNEELVVSASCK (UniProt Q96ME7) | 0.0455 |
| ZFYVE1_Q9HBF4_71_LKPGHVPYCDLCK (UniProt Q9HBF4) | -0.0474 |
| ZNF618_Q5T7W0_635+638_CSACALNSVVQSVLSK (UniProt Q5T7W0) | -0.111 |
| ZNF579_Q8NAF0_250_AHPCLRPEGEQEGEGGPPPRPK (UniProt Q8NAF0) | -0.0859 |
| ZMYND8_Q9ULU4_130_LTSEPEGDWFCPECEK (UniProt Q9ULU4) | 0.0029 |
| ZNF638_Q14966_428+431_IFPHLCSLCNVECSHLK (UniProt Q14966) | 0.156 |
| ZFP36L2_P47974_212_CHFIHNADER (UniProt P47974) | -0.142 |
| ZNF195_O14628_195_DWESLDECK (UniProt O14628) | -0.236 |
| ZNF451_Q9Y4E5_959_DAADFAICMHAGR (UniProt Q9Y4E5) | -0.0248 |
| ZNF691_Q5VV52_260_THTGERPYECTECGR (UniProt Q5VV52) | 0.396 |
| ZFPL1_O95159_35_CIVQSYLQWLQDSDYNPNCR (UniProt O95159) | -0.228 |
| ZNF638_Q14966_1156_ATCDSDFAVETLELETQGEEVK (UniProt Q14966) | -0.26 |
| ZMYND8_Q9ULU4_94_NDFYCWVCHR (UniProt Q9ULU4) | 0.0828 |

| Target | probe-labelled cysteine peptide fold change |
| --- | --- |
| ZNF316_A6NFI3_920_THTGERPYACANCGR (UniProt A6NFI3) | 0.182 |
| ZNF592_Q92610_353_SICSDSSSK (UniProt Q92610) | -0.0195 |
| ZMPSTE24_O75844_324_QGCKNEEVLAVLGHELGHWK (UniProt O75844) | -0.369 |
| ZFR_Q96KR1_991_GSPGLLDPCEK (UniProt Q96KR1) | -0.188 |
| ZNF143_P52747_299+304_CSEDNCTK (UniProt P52747) | 0.278 |
| ZMYM3_Q14202_1106_IKEDILACSAAELNYGLAQFVR (UniProt Q14202) | -0.0828 |
| ZNF384_Q8TF68_408_CHNCHR (UniProt Q8TF68) | 0.0575 |
| ZNF280C_Q8ND82_388_ICELSFETEHILLQHMK (UniProt Q8ND82) | 0.00547 |
| ZNF512B_Q96KM6_6_TDPFCVGGR (UniProt Q96KM6) | -0.0569 |
| ZMYND11_Q15326_347_ACDELELHQR (UniProt Q15326) | -0.0244 |
| ZNF106_Q9H2Y7_1238_EISDSCPVYPVITAR (UniProt Q9H2Y7) | -0.0437 |
| ZNF106_Q9H2Y7_1131_IQILQGLQETYEPSEHPDQVPCSLTR (UniProt Q9H2Y7) | 0.0774 |
| ZMYM3_Q14202_1326_SCIAESPLWYSVIPMDR (UniProt Q14202) | 0.107 |
| ZNF330_Q9Y3S2_192+194_ACFCDDHTR (UniProt Q9Y3S2) | 0.23 |
| ZMYM4_Q5VZL5_1264_SDPLGSTQDHALSQESSEPGCR (UniProt Q5VZL5) | -0.191 |
| ZFPL1_O95159_230_DDDRTPGLHGDCDDDK (UniProt O95159) | -0.305 |
| ZNF638_Q14966_428_IFPHLCSLCNVECSHLK (UniProt Q14966) | 0.189 |
